Measured values reported in paper PMC9691929.
These are yes or no findings as the source states them, for the method shown. Binding seen in cells or lysates may run through a third protein. A yes stands for co-enrichment or nearness to the bait. Other partners may have been found. For some of these results: Where a sequence is shown, tags or fusion partners need not be part of it.

By UniProt entry, the sequences of proteins in these tests, tags left out. Where a name states a change or a piece, a line headed by the entry shows the natural chain unless it says otherwise.
UniProt Q8NHS0: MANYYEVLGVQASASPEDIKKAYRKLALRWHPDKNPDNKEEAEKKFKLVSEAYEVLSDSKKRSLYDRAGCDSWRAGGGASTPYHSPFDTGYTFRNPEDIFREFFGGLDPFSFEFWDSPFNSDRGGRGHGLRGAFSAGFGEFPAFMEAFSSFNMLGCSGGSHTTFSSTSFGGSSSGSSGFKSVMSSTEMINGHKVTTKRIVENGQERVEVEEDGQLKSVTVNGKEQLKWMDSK
UniProt P35579: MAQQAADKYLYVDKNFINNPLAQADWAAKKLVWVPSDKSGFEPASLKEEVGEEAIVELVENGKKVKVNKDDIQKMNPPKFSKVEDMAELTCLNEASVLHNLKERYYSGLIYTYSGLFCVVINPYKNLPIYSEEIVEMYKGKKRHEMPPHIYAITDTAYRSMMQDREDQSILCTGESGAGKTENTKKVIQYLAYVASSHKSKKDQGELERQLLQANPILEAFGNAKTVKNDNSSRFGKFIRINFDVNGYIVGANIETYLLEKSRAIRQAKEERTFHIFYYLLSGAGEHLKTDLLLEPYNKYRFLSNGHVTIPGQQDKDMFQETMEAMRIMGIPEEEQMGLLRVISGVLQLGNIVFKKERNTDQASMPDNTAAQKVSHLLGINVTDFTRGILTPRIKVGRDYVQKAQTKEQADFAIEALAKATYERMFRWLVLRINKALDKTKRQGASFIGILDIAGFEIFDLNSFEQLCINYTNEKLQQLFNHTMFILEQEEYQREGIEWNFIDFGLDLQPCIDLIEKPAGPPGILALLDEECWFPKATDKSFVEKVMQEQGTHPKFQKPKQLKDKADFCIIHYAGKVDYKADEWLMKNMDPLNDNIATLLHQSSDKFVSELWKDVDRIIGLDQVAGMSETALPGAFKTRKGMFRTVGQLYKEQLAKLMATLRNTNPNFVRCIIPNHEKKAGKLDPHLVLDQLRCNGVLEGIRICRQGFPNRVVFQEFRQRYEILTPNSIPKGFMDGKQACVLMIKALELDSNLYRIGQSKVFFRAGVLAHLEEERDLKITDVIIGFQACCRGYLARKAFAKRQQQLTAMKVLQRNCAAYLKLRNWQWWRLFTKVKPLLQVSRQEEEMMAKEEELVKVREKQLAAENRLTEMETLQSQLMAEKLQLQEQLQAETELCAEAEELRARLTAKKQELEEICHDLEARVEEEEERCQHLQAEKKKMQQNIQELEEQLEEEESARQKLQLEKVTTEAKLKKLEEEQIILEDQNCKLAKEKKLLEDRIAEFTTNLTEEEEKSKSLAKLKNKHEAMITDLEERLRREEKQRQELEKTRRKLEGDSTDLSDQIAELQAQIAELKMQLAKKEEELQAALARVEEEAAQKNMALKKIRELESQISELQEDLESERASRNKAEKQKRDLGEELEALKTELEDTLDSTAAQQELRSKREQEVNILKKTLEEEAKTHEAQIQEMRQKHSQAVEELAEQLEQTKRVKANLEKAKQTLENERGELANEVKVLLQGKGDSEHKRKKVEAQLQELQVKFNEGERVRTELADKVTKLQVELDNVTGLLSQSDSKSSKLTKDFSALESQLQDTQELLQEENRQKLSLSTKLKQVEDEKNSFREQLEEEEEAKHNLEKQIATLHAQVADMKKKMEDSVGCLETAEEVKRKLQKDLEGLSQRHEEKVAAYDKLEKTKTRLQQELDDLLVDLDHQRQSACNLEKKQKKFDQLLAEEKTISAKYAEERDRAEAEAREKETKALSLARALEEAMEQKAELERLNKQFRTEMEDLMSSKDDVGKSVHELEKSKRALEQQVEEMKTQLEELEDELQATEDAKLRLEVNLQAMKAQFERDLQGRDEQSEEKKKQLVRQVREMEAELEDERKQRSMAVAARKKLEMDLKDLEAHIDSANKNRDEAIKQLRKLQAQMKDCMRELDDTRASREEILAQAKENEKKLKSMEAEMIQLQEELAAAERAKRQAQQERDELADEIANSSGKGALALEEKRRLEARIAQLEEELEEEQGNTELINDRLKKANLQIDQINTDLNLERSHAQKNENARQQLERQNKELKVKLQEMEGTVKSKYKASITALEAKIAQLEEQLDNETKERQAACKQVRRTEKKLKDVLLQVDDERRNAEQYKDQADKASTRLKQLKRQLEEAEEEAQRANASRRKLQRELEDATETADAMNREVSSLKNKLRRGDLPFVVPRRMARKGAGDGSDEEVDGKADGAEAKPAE
UniProt P60660: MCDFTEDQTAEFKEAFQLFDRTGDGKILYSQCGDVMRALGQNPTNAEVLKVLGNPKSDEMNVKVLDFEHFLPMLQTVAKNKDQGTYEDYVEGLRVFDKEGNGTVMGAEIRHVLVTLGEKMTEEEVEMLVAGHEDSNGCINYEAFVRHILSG

T1: Hspa13 with a C-terminal Flag (human) (UniProt P48723)
T1 sequence: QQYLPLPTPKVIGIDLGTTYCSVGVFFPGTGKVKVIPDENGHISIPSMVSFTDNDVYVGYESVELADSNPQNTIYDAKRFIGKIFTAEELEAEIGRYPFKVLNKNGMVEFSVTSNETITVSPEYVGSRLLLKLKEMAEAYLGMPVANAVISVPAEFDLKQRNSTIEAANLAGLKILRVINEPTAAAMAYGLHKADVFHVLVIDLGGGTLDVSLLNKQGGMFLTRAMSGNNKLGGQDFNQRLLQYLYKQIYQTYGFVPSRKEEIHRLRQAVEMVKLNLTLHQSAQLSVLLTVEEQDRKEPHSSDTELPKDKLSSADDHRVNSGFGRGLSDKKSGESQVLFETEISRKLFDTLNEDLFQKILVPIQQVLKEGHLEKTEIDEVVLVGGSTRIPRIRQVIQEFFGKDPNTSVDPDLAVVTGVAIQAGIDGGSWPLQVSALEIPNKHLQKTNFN

T2: Hspa13 with a C-terminal Flag (human), P48723
T2 chain: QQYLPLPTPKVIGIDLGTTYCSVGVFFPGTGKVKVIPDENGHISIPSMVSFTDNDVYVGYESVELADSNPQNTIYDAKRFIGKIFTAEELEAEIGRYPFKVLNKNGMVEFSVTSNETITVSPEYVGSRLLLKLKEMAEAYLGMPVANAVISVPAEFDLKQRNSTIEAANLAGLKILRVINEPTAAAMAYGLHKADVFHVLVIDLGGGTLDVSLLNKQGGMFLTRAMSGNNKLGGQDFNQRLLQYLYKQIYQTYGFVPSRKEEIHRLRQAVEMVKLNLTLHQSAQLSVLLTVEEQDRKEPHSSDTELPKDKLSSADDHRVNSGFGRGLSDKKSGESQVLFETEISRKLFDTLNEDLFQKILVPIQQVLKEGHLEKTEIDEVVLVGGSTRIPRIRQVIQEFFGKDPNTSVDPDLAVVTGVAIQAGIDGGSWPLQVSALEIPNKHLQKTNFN


What was measured:
Flag-tagged DNAJB8 H31Q = Flag-tagged DNAJB8 H31Q (UniProt Q8NHS0); test: affinity purification with mass spectrometry; Hsp40 affinity profiling: ^FlagDNAJB8^H31Q overexpressed in HEK293T and HSPA13-/- (12F4) cells, 1 uM Tg for 3 h, RIPA lysis, M2 anti-Flag Dynabeads overnight at 4 C, four RIPA washes, TMT-LC-MS; recovery compared between the two cell lines
[1] = molecular target: T1, Hspa13 with a C-terminal Flag (human); test: affinity purification with mass spectrometry; HEK293T overexpressing Hspa13^Flag or mock (eGFP), crosslinked in cells with 1 mM DSP for 30 min, quenched, lysed; M2 anti-Flag Dynabeads; stringent RIPA washes; TMT, MuDPIT; 5% FDR
[2] = molecular target: T2, Hspa13 with a C-terminal Flag (human), …; test: as above; conditions: remark: other sources report otherwise

| Molecule | binding [1] | other results |
| --- | --- | --- |
| MYH9 (from UniProt P35579 1-1960) |  | binding (Flag-tagged DNAJB8 H31Q): binds |
| MYL6 (from UniProt P60660 1-151) |  | binding (Flag-tagged DNAJB8 H31Q): binds |
| PDIA4 (protein, UniProt P13667 21-645) VAGAEGPDEDSSNRENAIEDEEEEEEEDDDEEEDDLEVKEENGVLVLNDANFDNFVADKDTVLLEFYAPWCGHCKQFAPEYEKIANILKDKDPPIPVAKIDATSASVLASRFDVSGYPTIKILKKGQAVDYEGSRTQEEIVAKVREVSQPDWTPPPEVTLVLTKENFDEVVNDADIILVEFYAPWCGHCKKLAPEYEKAAKELSKRSPPIPLAKVDATAETDLAKRFDVSGYPTLKIFRKGRPYDYNGPREKYGIVDYMIEQSGPPSKEILTLKQVQEFLKDGDDVIIIGVFKGESDPAYQQYQDAANNLREDYKFHHTFSTEIAKFLKVSQGQLVVMQPEKFQSKYEPRSHMMDVQGSTQDSAIKDFVLKYALPLVGHRKVSNDAKRYTRRPLVVVYYSVDFSFDYRAATQFWRSKVLEVAKDFPEYTFAIADEEDYAGEVKDLGLSESGEDVNAAILDESGKKFAMEPEEFDSDTLREFVTAFKKGKLKPVIKSQPVPKNNKGPVKVVVGKTFDSIVMDPKKDVLIEFYAPWCGHCKQLEPVYNSLAKKYKGQKGLVIAKMDATANDVPSDRYKVEGFPTIYFAPSGDKKNPVKFEGGDRDLEHLSKFIEEHATKLSRTKEEL | binds |  |
| HYOU1, Q9Y4L1 33-999 (protein) LAVMSVDLGSESMKVAIVKPGVPMEIVLNKESRRKTPVIVTLKENERFFGDSAASMAIKNPKATLRYFQHLLGKQADNPHVALYQARFPEHELTFDPQRQTVHFQISSQLQFSPEEVLGMVLNYSRSLAEDFAEQPIKDAVITVPVFFNQAERRAVLQAARMAGLKVLQLINDNTATALSYGVFRRKDINTTAQNIMFYDMGSGSTVCTIVTYQMVKTKEAGMQPQLQIRGVGFDRTLGGLEMELRLRERLAGLFNEQRKGQRAKDVRENPRAMAKLLREANRLKTVLSANADHMAQIEGLMDDVDFKAKVTRVEFEELCADLFERVPGPVQQALQSAEMSLDEIEQVILVGGATRVPRVQEVLLKAVGKEELGKNINADEAAAMGAVYQAAALSKAFKVKPFVVRDAVVYPILVEFTREVEEEPGIHSLKHNKRVLFSRMGPYPQRKVITFNRYSHDFNFHINYGDLGFLGPEDLRVFGSQNLTTVKLKGVGDSFKKYPDYESKGIKAHFNLDESGVLSLDRVESVFETLVEDSAEEESTLTKLGNTISSLFGGGTTPDAKENGTDTVQEEEESPAEGSKDEPGEQVELKEEAEAPVEDGSQPPPPEPKGDATPEGEKATEKENGDKSEAQKPSEKAEAGPEGVAPAPEGEKKQKPARKRRMVEEIGVELVVLDLPDLPEDKLAQSVQKLQDLTLRDLEKQEREKAANSLEAFIFETQDKLYQPEYQEVSTEEQREEISGKLSAASTWLEDEGVGATTVMLKEKLAELRKLCQGLFFRVEERKKWPERLSALDNLLNHSSMFLKGARLIPEMDQIFTEVEMTTLEKVINETWAWKNATLAEQAKLPATEKPVLLSKDIEAKMMALDREVQYLLNKAKFTKPRPRPKDKNGTRAEPPLNASASDQGEKVIPPAGQTEDAEPISEPEKVETGSEPGDTEPLELGGPGAEPEQKEQSTGQKRPLKNDEL |  | binding [2]: binds |

The next lines start with results.

| binding [1] | Molecule | other results |
| --- | --- | --- |
| binds | SRPRB (protein, UniProt Q9Y5M8 1-271) MASADSRRVADGGGAGGTFQPYLDTLRQELQQTDPTLLSVVVAVLAVLLTLVFWKLIRSRRSSQRAVLLVGLCDSGKTLLFVRLLTGLYRDTQTSITDSCAVYRVNNNRGNSLTLIDLPGHESLRLQFLERFKSSARAIVFVVDSAAFQREVKDVAEFLYQVLIDSMGLKNTPSFLIACNKQDIAMAKSAKLIQQQLEKELNTLRVTRSAAPSTLDSSSTAPAQLGKKGKEFEFSQLPLKVEFLECSAKGGRGDVGSADIQDLEKWLAKIA |  |
| binds | SEC11C (protein, UniProt Q9BY50 1-192) MVRAGAVGAHLPASGLDIFGDLKKMNKRQLYYQVLNFAMIVSSALMIWKGLIVLTGSESPIVVVLSGSMEPAFHRGDLLFLTNFREDPIRAGEIVVFKVEGRDIPIVHRVIKVHEKDNGDIKFLTKGDNNEVDDRGLYKEGQNWLEKKDVVGRARGFLPYVGMVTIIMNDYPKFKYALLAVMGAYVLLKRES |  |
| binds | ZMPSTE24 (protein, UniProt O75844 1-475) MGMWASLDALWEMPAEKRIFGAVLLFSWTVYLWETFLAQRQRRIYKTTTHVPPELGQIMDSETFEKSRLYQLDKSTFSFWSGLYSETEGTLILLFGGIPYLWRLSGRFCGYAGFGPEYEITQSLVFLLLATLFSALTGLPWSLYNTFVIEEKHGFNQQTLGFFMKDAIKKFVVTQCILLPVSSLLLYIIKIGGDYFFIYAWLFTLVVSLVLVTIYADYIAPLFDKFTPLPEGKLKEEIEVMAKSIDFPLTKVYVVEGSKRSSHSNAYFYGFFKNKRIVLFDTLLEEYSVLNKDIQEDSGMEPRNEEEGNSEEIKAKVKNKKQGCKNEEVLAVLGHELGHWKLGHTVKNIIISQMNSFLCFFLFAVLIGRKELFAAFGFYDSQPTLIGLLIIFQFIFSPYNEVLSFCLTVLSRRFEFQADAFAKKLGKAKDLYSALIKLNKDNLGFPVSDWLFSMWHYSHPPLLERLQALKTMKQH |  |
